# Experimental data reported in the supplement of paper PMC12819154, “High-throughput peptide-centric local stability assay extends protein–ligand identification to membrane proteins, tissues and bacteria” (Nature Structural & Molecular Biology, 2025).
# Sequences of proteins named here, by UniProt entry; tags and fusion partners are left off. A change or cut given only in a name is not applied to a line headed by its entry.
# UniProt Q9BUQ8: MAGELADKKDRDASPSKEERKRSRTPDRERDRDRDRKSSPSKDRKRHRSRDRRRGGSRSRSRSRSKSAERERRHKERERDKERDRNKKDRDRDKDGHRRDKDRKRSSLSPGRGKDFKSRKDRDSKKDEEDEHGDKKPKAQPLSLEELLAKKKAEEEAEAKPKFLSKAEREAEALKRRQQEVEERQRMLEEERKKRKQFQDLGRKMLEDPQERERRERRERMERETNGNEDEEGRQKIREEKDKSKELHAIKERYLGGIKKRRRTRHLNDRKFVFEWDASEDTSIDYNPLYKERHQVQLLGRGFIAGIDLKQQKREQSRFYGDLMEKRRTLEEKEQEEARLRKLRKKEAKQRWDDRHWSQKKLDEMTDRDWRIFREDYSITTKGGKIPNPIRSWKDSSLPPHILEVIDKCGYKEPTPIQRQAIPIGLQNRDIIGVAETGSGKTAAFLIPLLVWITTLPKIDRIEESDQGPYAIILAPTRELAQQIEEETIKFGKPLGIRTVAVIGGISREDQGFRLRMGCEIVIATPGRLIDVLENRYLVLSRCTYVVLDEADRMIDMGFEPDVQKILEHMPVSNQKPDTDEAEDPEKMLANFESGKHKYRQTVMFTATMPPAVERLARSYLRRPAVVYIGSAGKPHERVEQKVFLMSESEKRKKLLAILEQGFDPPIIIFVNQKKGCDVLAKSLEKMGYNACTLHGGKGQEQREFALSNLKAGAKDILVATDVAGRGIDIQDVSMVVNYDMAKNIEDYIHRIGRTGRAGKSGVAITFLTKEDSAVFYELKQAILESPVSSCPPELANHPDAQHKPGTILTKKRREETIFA
# UniProt Q99614: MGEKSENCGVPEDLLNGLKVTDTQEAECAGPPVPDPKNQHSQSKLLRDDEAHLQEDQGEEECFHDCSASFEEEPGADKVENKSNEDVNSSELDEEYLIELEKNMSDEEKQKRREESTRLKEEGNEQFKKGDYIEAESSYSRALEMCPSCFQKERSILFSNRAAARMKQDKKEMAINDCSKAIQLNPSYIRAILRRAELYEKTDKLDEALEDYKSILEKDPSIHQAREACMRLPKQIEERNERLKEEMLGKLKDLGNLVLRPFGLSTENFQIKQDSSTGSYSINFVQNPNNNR
# UniProt Q9BTF0: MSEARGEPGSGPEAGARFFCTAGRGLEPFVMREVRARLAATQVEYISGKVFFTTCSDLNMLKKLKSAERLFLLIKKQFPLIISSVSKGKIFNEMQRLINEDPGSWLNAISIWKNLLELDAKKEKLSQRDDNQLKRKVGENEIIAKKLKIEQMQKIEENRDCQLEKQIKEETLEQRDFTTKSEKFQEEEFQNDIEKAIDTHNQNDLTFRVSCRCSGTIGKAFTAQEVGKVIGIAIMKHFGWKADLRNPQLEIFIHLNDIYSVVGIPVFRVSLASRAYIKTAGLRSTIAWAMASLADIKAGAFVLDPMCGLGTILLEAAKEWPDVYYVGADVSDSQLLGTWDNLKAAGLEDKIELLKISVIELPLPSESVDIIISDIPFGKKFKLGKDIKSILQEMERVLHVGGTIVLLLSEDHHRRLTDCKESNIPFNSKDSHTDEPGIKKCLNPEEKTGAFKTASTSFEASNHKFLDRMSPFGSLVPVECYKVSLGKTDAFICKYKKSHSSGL
# UniProt Q9BQE3, whole entry: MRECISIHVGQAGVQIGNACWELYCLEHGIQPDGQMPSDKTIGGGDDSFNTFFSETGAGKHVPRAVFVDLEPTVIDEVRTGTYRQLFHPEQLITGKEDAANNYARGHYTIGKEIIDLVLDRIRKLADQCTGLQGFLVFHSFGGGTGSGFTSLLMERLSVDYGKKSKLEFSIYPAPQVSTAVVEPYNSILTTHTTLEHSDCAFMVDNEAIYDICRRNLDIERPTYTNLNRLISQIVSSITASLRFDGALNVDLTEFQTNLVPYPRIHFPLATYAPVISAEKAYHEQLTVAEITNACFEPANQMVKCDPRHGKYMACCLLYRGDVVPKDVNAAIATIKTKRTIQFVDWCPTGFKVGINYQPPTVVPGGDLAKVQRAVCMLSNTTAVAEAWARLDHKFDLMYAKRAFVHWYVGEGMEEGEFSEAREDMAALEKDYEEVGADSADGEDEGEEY
# UniProt Q9BR61: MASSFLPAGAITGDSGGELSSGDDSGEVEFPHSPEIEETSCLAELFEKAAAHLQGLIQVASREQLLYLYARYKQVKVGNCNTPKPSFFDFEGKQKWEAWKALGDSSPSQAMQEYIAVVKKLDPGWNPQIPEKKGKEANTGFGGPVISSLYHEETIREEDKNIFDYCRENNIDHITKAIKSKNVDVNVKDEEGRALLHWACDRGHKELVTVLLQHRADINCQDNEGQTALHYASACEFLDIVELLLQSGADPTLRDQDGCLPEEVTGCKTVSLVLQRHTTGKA
# UniProt Q9BR77: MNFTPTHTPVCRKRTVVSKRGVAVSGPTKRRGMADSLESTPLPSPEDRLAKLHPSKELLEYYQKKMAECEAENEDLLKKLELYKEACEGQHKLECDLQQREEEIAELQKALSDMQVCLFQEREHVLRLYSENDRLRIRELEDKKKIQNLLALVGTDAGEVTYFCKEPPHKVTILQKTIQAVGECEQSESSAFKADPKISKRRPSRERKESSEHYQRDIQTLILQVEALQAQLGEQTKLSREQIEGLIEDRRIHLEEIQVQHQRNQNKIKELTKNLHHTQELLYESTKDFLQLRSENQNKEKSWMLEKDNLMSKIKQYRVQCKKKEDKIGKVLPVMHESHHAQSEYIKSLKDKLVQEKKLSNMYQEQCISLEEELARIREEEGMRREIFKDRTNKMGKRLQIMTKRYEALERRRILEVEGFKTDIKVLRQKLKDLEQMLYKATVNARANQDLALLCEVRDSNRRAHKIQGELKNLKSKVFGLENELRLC
# UniProt Q9BVI0: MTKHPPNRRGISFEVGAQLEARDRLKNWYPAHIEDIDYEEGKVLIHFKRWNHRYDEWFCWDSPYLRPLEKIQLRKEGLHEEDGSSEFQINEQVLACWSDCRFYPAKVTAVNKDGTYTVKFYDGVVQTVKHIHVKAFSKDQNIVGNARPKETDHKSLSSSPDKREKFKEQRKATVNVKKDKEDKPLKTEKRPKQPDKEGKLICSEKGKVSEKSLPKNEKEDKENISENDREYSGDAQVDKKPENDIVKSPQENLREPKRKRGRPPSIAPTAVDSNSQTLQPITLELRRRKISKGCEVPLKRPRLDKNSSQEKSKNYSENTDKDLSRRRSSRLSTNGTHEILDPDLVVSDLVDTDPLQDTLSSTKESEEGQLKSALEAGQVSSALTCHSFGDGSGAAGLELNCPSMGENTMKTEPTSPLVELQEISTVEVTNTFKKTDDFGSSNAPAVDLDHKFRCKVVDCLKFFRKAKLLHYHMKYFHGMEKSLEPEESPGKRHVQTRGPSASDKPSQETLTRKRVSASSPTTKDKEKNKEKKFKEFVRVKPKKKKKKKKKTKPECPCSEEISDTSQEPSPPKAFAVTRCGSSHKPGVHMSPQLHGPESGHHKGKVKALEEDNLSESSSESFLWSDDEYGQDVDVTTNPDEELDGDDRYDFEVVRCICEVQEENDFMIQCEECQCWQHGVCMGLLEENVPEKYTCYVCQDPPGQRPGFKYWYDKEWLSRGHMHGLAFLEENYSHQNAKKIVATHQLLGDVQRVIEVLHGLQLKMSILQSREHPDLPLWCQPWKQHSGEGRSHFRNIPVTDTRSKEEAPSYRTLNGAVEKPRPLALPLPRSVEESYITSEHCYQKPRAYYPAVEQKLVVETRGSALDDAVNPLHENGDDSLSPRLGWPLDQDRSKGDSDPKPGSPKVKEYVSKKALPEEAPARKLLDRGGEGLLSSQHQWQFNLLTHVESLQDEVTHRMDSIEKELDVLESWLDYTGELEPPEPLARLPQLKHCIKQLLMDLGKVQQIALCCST
# UniProt Q9BQ39: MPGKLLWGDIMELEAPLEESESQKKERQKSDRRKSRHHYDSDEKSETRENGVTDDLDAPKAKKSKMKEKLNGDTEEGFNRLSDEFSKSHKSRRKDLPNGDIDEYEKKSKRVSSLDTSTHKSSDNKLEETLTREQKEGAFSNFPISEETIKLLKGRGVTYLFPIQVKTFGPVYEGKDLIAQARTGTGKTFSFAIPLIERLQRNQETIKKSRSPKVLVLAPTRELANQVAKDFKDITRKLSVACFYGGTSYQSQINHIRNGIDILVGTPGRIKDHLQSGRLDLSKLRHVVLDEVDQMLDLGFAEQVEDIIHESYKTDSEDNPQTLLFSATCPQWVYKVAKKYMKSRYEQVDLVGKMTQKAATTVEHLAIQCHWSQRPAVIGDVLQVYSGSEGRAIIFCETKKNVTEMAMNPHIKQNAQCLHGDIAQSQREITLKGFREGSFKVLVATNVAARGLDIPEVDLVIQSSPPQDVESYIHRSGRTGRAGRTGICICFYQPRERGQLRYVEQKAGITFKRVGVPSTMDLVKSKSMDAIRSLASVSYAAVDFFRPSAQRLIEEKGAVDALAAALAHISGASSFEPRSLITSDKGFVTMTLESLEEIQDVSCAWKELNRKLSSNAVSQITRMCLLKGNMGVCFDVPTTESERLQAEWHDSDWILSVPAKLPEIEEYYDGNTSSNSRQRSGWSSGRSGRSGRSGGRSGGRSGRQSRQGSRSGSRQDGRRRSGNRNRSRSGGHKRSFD
# UniProt Q9BV29: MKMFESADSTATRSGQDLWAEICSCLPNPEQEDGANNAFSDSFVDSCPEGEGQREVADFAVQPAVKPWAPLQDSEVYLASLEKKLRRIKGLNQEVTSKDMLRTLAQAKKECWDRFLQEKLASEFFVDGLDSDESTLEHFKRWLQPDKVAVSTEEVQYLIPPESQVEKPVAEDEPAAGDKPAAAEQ
# UniProt Q9BRP1: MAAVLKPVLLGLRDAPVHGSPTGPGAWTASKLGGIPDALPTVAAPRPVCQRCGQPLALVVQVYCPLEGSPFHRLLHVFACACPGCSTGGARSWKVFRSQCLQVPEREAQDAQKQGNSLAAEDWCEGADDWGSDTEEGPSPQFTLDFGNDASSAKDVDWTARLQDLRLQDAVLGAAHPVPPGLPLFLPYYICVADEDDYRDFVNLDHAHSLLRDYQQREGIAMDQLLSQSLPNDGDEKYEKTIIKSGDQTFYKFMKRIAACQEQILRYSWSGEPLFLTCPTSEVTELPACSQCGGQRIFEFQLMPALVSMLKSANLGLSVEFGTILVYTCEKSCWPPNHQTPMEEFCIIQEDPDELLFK
# UniProt Q9BUB4: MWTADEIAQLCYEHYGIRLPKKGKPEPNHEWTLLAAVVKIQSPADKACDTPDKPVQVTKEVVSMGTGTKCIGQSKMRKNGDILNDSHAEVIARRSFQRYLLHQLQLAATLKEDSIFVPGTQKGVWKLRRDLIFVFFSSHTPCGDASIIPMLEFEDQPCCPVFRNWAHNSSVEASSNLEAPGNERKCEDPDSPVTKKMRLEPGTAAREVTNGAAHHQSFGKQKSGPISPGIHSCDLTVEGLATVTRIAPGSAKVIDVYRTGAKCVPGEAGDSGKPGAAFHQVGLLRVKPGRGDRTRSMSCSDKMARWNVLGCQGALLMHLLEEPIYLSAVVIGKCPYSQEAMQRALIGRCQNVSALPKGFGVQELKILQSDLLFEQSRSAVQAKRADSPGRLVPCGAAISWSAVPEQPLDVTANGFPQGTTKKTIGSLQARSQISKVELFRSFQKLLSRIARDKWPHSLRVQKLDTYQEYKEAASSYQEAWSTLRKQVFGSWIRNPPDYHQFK
# UniProt Q9BSI4: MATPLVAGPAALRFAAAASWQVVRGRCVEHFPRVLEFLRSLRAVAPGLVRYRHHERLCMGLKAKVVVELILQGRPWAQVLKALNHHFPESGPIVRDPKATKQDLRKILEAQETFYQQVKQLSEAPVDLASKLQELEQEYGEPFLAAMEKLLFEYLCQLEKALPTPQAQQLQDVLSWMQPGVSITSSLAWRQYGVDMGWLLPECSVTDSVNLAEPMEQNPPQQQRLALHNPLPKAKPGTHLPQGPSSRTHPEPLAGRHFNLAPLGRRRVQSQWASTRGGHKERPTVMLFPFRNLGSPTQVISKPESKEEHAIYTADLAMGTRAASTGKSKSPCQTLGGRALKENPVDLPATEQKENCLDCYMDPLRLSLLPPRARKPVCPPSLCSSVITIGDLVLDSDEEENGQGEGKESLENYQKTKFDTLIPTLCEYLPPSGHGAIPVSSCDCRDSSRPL
# UniProt Q9BSK1: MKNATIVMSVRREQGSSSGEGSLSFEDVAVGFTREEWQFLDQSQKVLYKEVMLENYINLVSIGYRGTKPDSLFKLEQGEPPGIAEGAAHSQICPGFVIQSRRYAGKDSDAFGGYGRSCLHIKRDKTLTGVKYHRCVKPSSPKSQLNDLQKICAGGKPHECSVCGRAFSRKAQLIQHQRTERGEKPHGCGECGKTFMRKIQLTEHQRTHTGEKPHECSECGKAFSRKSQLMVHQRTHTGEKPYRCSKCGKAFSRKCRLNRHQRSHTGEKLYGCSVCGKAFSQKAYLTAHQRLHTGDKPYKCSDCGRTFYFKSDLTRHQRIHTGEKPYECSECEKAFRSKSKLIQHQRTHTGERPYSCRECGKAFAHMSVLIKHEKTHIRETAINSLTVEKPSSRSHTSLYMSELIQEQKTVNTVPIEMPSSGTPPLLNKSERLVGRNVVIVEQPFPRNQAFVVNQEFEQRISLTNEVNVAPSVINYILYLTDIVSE
# The list shows a part of the results. Most values lie at the level of the controls, where differences are scatter.
# Compound: CN[C@@H]1C[C@H]2O[C@@](C)([C@@H]1OC)n1c3ccccc3c3c4c(c5c6ccccc6n2c5c31)C(=O)NC4 [staurosporine]
# Assay: log2 fold change of tryptic peptide abundance, ligand vs vehicle (limited proteolysis) (log2 ratio); higher = more trypsin-susceptible (destabilized)
# Details: ligand concentration: 20 uM; sample: K562 cleared lysate; digestion: 4 min, 22 C (HT-PELSA RT4min, Orbitrap Astral)
row,Target,log2 fold change
1,"DDX23 (peptide sequence: GIDIQDVSMVVNYDMAK, peptide start residue: 727) (UniProt Q9BUQ8)",0.299
2,"UniProt Q9BTE0 (peptide sequence: LNQNTLLLGK, peptide start residue: 3)",-0.161
3,"MED10 (peptide sequence: SLLIQELSK, peptide start residue: 107) (UniProt Q9BTT4)",0.163
4,"UniProt Q9BRP8 (peptide sequence: RRALEEELEDLELGL, peptide start residue: 190)",-0.411
5,"TTC1 (peptide sequence: ALEMCPSCFQKER, peptide start residue: 142) (UniProt Q99614)",0.325
6,"THUMPD2 (peptide sequence: TASTSFEASNHK, peptide start residue: 453) (UniProt Q9BTF0)",-0.358
7,"TUBA1C (peptide sequence: AVCMLSNTTAVAEAWAR, peptide start residue: 374) (UniProt Q9BQE3)",-0.0963
8,"ACBD6 (peptide sequence: PSFFDFEGK, peptide start residue: 85) (UniProt Q9BR61)",0.634
9,"CCDC77 (peptide sequence: NLHHTQELLYESTKDFLQLR, peptide start residue: 274) (UniProt Q9BR77)",0.712
10,"UniProt Q9BUA3 (peptide sequence: GLRPLELPAVPATEPGNK, peptide start residue: 195)",-0.256
11,"PHF20 (peptide sequence: SVEESYITSEHCYQKPR, peptide start residue: 829) (UniProt Q9BVI0)",-0.322
12,"COPS4 (peptide sequence: IASQMITEGR, peptide start residue: 338) (UniProt Q9BT78)",0.32
13,"DNAJC7 (peptide sequence: ALMHHPDR, peptide start residue: 405) (UniProt Q99615)",0.243
14,"WDR18 (peptide sequence: VRVTELEDEVR, peptide start residue: 400) (UniProt Q9BV38)",-0.0738
15,"NIPSNAP1 (peptide sequence: MGPNIYELR, peptide start residue: 180) (UniProt Q9BPW8)",0.332
16,"UniProt Q9BUG6 (peptide sequence: ASSVNQMRPGEGQAHR, peptide start residue: 166)",-0.251
17,"DDX50 (peptide sequence: IKDHLQSGR, peptide start residue: 270) (UniProt Q9BQ39)",0.634
18,"WAC (peptide sequence: ISTPQTNTVPIKPLISTPPVSSQPK, peptide start residue: 455) (UniProt Q9BTA9)",-0.234
19,"UniProt Q9BV29 (peptide sequence: LASEFFVDGLDSDESTLEHFKR, peptide start residue: 120)",-0.137
20,"TUBGCP2 (peptide sequence: NRTPYVTTTVSAHSAK, peptide start residue: 35) (UniProt Q9BSJ2)",0.868
21,"PDCD2L (peptide sequence: SGDQTFYK, peptide start residue: 245) (UniProt Q9BRP1)",-0.123
22,"UBAC1 (peptide sequence: HCAHGSLEDPK, peptide start residue: 46) (UniProt Q9BSL1)",0.217
23,"ADAT1 (peptide sequence: EVVSMGTGTK, peptide start residue: 60) (UniProt Q9BUB4)",0.387
24,"UniProt Q9BSI4 (peptide sequence: AKPGTHLPQGPSSR, peptide start residue: 234)",-0.298
25,"UniProt Q9BSK1 (peptide sequence: KSQLMVHQRTHTGEK, peptide start residue: 226)",0.259
26,"UniProt Q9BR11 (peptide sequence: DSSPPMLLHQVNK, peptide start residue: 42)",-0.243

# Some of the entries above in another layout.
row | Target | log2 fold change
1 | DDX23 (peptide sequence: GIDIQDVSMVVNYDMAK, peptide start residue: 727) (UniProt Q9BUQ8) | 0.299
4 | UniProt Q9BRP8 (peptide sequence: RRALEEELEDLELGL, peptide start residue: 190) | -0.411
